Laboratory results reported in paper PMC10893103, “Cyclodextrin-Enabled Enantioselective Complexation Study of Cathinone Analogs” (Molecules, 2024).

Assays:
[1] = Affinity capillary electrophoresis (ACE), pH 7.4; conditions: 30 mM phosphate buffer pH 7.4; at the optimal CD concentration printed in brackets beside the value
From the text: To assess the CD complex formation capability of the five cathinone derivatives, we devised a screening ACE method tailored to closely mimic physiological conditions. In a preliminary study, the ACE conditions were optimized regarding the type, pH, and concentration of the background electrolyte, the applied voltage, and the injection parameters. […] In order to avoid high Joule heat generation, sufficiently low voltage should be used; thus, after registering the Ohm plot (I-U plot), it was set to 15 kV. Throughout our ACE measurements, corrections for viscosity and ionic strength were systematically implemented to ensure precise determination of complex stability constants.
The CE experiments were performed on a HP ^3DCE and on an Agilent 7100 instrument (Agilent Technologies, Waldbronn, Germany) equipped with a photodiode array detector and the Chemstation software for data handling. Untreated fused silica capillaries (50 µm id, 48.5 cm total, 40 cm effective length) were purchased from Agilent. Conditioning of new capillary was conducted by flushing with 1 M NaOH followed by 0.1 M NaOH and water for 30 min each. Prior to all runs, the capillary was preconditioned by rinsing with BGE (2 min). The temperature of the capillary was set to 25 °C. UV detection was performed at 215 nm, and 15–25 kV voltage was applied. Samples were injected hydrodynamically (150 mbar·sec, optimized in the 50–500 mbar·sec range). The CE-pH measurements were carried out applying 25 kV voltage and 200 mbar·sec injection.
The background electrolyte of the CE-pH measurements contained 25 mM Na2HPO4 and 25 mM Na2B4O7, and the appropriate pH was adjusted with hydrochloric acid. During the ACE measurements, 30 mM phosphate buffer pH 7.4 (30 mM Na2HPO4—NaOH) was used. The running buffer was 20 mM acetic acid adjusting with 1 M Tris the pH to 4.5 during the chiral screening experiments. The BGEs contained CDs at various concentrations (0.25–20 mM) in the ACE experiments and 1-5-10 mM in the chiral method optimization experiments.
Stock solutions of each cathinone analog (mephedrone, flephedrone, 4-MEC, butylone, and MDPV) were prepared separately in methanol (1 mg/ml), and appropriate dilutions with water were used to prepare sample solutions for the CE-pH titration and for the ACE studies applying DMSO as EOF marker, while their mixture was used during the chiral separation studies.
The simplest way to determine the mobility is from the migration times (tmax) read from the electropherograms from which the apparent mobility could be calculated, but more accurate mobility values could be obtained by the determination with the Haarhoff–van der Linde (HVL) function based on Equation (2). (2) HVLδ(t;a0,a1,a2,a3δ)=a0/a2a3δ2πexp[−1/2(t−a1/a2)^2]/1/exp(a3δ)−1+1/2[1+erf(t−a1/2a2)] where a0 is the area of the HVL function, a1 is the position of the Gaussian component, a2 is the standard deviation of the Gaussian component, and a3δ is the peak shape distortion. The application of the HVL function is necessary in the case of accurate ACE measurements because, in several cases, the peaks are distorted due to the complex formation, which makes reading the migration times and calculating the mobility more difficult and imprecise.
The most popular technique for quantifying the analyte–ligand interaction with CE is mobility shift ACE.

[2] = Chiral CE enantioseparation screening, pH 4.5
[3] = Chiral CE enantioseparation screening, pH 4.5; remark: listed apart in the source
[4] = Chiral CE enantioseparation screening, pH 4.5; remark: listed apart in the source
[5] = Chiral CE enantioseparation screening, pH 4.5; remark: listed apart in the source
[6] = Chiral CE enantioseparation screening, pH 4.5; remark: listed apart in the source
[7] = 20 mM acetate buffer pH 4.5, CD 10 mM
[8] = 20 mM acetate buffer pH 4.5, CD 1-5 mM
[9] = 20 mM acetate buffer pH 4.5, CD 1 mM
[10] = 20 mM acetate buffer pH 4.5, CD 5 mM

| Molecule | MDPV maximal enantioresolution Rs [1] | Enantioseparation (Rs) of Flephedrone [2, 7] | Enantioseparation (Rs) of Mephedrone [3, 7] | Enantioseparation (Rs) of 4-MEC [4, 7] | Enantioseparation (Rs) of Butylone [5, 7] | Enantioseparation (Rs) of MDPV [6, 7] | 4-MEC maximal enantioresolution Rs [1] | Mephedrone maximal enantioresolution Rs [1] | Enantioseparation (Rs) of Flephedrone [2, 9] | Enantioseparation (Rs) of Flephedrone [2, 10] | Enantioseparation (Rs) of Mephedrone [3, 9] | Enantioseparation (Rs) of Mephedrone [3, 10] | Enantioseparation (Rs) of 4-MEC [4, 9] | Enantioseparation (Rs) of 4-MEC [4, 10] | Enantioseparation (Rs) of Butylone [5, 9] | Enantioseparation (Rs) of Butylone [5, 10] | Enantioseparation (Rs) of MDPV [6, 9] | Enantioseparation (Rs) of MDPV [6, 10] | Butylone maximal enantioresolution Rs [1] | Flephedrone maximal enantioresolution Rs [1] | further results |
| --- | --- | --- | --- | --- | --- | --- | --- | --- | --- | --- | --- | --- | --- | --- | --- | --- | --- | --- | --- | --- | --- |
| OC[C@H]1O[C@@H]2O[C@H]3[C@H](O)[C@@H](O)[C@@H](O[C@H]4[C@H](O)[C@@H](O)[C@@H](O[C@H]5[C@H](O)[C@@H](O)[C@@H](O[C@H]6[C@H](O)[C@@H](O)[C@@H](O[C@H]7[C@H](O)[C@@H](O)[C@@H](O[C@H]1[C@H](O)[C@H]2O)O[C@@H]7CO)O[C@@H]6CO)O[C@@H]5CO)O[C@@H]4CO)O[C@@H]3CO [α-CD] | 0.6 | 0 | 0 | 0.3 | 0 | 0 | – | – | – | – | – | – | – | – | – | – | – | – | – | – | Enantioseparation (Rs) of Flephedrone [2, 8]: 0; Enantioseparation (Rs) of Mephedrone [3, 8]: 0; Enantioseparation (Rs) of 4-MEC [4, 8]: 0; Enantioseparation (Rs) of Butylone [5, 8]: 0; Enantioseparation (Rs) of MDPV [6, 8]: 0 |
| O=C(O)CCSC[C@H]1O[C@@H]2O[C@H]3[C@H](O)[C@@H](O)[C@@H](O[C@H]4[C@H](O)[C@@H](O)[C@@H](O[C@H]5[C@H](O)[C@@H](O)[C@@H](O[C@H]6[C@H](O)[C@@H](O)[C@@H](O[C@H]7[C@H](O)[C@@H](O)[C@@H](O[C@H]8[C@H](O)[C@@H](O)[C@@H](O[C@H]9[C@H](O)C(O)[C@@H](O[C@H]1[C@H](O)[C@H]2O)O[C@@H]9CSCCC(=O)O)O[C@@H]8CSCCC(=O)O)O[C@@H]7CSCCC(=O)O)O[C@@H]6CSCCC(=O)O)O[C@@H]5CSCCC(=O)O)O[C@@H]4CSCCC(=O)O)O[C@@H]3CSCCC(=O)O (stereo partly drawn) [SGX, octakis(6-deoxy-6-(2-carboxyethyl)thio)-γ-CD] | 2.2 | 0.6 | 0.7 | 0.9 | 0 | 0 | 1.3 | 2.5 | 0 | 0 | 0 | 0.8 | 0.4 | 0.9 | 0 | 0 | 2.4 | 0 | – | – | – |
| O=C(O)CCSC[C@H]1O[C@@H]2O[C@H]3[C@H](O)[C@@H](O)[C@@H](O[C@H]4[C@H](O)[C@@H](O)[C@@H](O[C@H]5[C@H](O)[C@@H](O)[C@@H](O[C@H]6[C@H](O)[C@@H](O)[C@@H](O[C@H]7[C@H](O)[C@@H](O)[C@@H](O[C@H]8[C@H](O)[C@@H](O)[C@@H](O[C@H]1[C@H](O)[C@H]2O)O[C@@H]8CSCCC(=O)O)O[C@@H]7CSCCC(=O)O)O[C@@H]6CSCCC(=O)O)O[C@@H]5CSCCC(=O)O)O[C@@H]4CSCCC(=O)O)O[C@@H]3CSCCC(=O)O [SBX, heptakis-(6-deoxy-6-(2-carboxyethyl)thio)-β-CD] | 1.6 | 0.6 | 0 | 0.8 | 0.9 | 1.9 | – | – | 0 | 0.5 | 0.4 | 0 | 0.5 | – | 0 | 0.7 | 0 | 2.7 | 0.9 | 1.0 | – |
| sulfopropylated-β-CD [SP-β-CD (DS~4)] | – | 0 | 0.5 | 0.4 | 0 | 0.6 | – | 0.5 | 0 | 0 | 0 | 0.4 | 0 | 0.3 | 0.5 | 0.3 | 0.3 | 0.4 | – | – | – |
| sulfobutyl-ether-β-CD [SBE-β-CD (DS~6.5)] | 1.1 | 0.4 | 0.8 | 1.5 | 0.6 | 1.4 | 1.4 | 0.6 | 0.3 | 0.5 | 0.4 | 0.7 | 0.5 | 1.2 | 0.5 | 0.4 | 0.7 | 1.0 | 0.7 | 1.0 | – |
| carboxymethylated-α-CD [CM-α-CD] | 3.3 | 1.2 | 0.8 | 0.6 | 0.8 | 5.5 | 1.4 | 1.7 | 0.5 | 0.9 | 0.6 | 1.7 | 0.4 | 1.5 | 0.3 | 0.5 | 1.7 | 2.9 | 0.6 | 0.9 | – |
